Here are results for two molecules from PMC3285591.

No constants are given. Whether binding was seen depends on the method and setting. In cells and extracts the contact can be indirect. These calls come from enrichment with a bait or labelling near it, and not all partners need be listed.

For the experiment, the target named is HA-tagged wild type Dlg. Put plainly: affinity purification with mass spectrometry; HA-tagged Dlg transfected into HEK293; extracts (50 mM HEPES pH 7.4, 150 mM NaCl, 50 mM NaF, 1 mM EDTA, 0.25% NP-40) on anti-HA beads 2-3 h at 4 °C; compared with mock-transfected cells.

B1: LIN7C (protein, UniProt Q9NUP9 1-197)
chain: MAALGEPVRLERDICRAIELLEKLQRSGEVPPQKLQALQRVLQSEFCNAVREVYEHVYETVDISSSPEVRANATAKATVAAFAASEGHSHPRVVELPKTEEGLGFNIMGGKEQNSPIYISRIIPGGIADRHGGLKRGDQLLSVNGVSVEGEHHEKAVELLKAAQGKVKLVVRYTPKVLEEMESRFEKMRSAKRRQQT
Consider B1, for which the binding entry is recorded as “binds”.

B2: Net1 (protein, UniProt Q7Z628 1-596)
chain: MEPELAAQKQPRPRRRSRRASGLSTEGATGPSADTSGSELDGRCSLRRGSSFTFLTPGPNWDFTLKRKRREKDDDVVSLSSLDLKEPSNKRVRPLARVTSLANLISPVRNGAVRRFGQTIQSFTLRGDHRSPASAQKFSSRSTVPTPAKRRSSALWSEMLDITMKESLTTREIRRQEAIYEMSRGEQDLIEDLKLARKAYHDPMLKLSIMSEEELTHIFGDLDSYIPLHEDLLTRIGEATKPDGTVEQIGHILVSWLPRLNAYRGYCSNQLAAKALLDQKKQDPRVQDFLQRCLESPFSRKLDLWSFLDIPRSRLVKYPLLLKEILKHTPKEHPDVQLLEDAILIIQGVLSDINLKKGESECQYYIDKLEYLDEKQRDPRIEASKVLLCHGELRSKSGHKLYIFLFQDILVLTRPVTRNERHSYQVYRQPIPVQELVLEDLQDGDVRMGGSFRGAFSNSEKAKNIFRIRFHDPSPAQSHTLQANDVFHKQQWFNCIRAAIAPFQSAGSPPELQGLPELHEECEGNHPSARKLTAQRRASTVSSVTQVEVDENAYRCGSGMQMAEDSKSLKTHQTQPGIRRARDKALSGGKRKETLV
B2: the binding result is given as “binds”.
